Growth estimate data for 114 substances are collected here from the supplement of paper PMC5949888.

Most values lie at the floor of the assay. Slopes are relative: functional sequences can read slightly below zero. Where only a bound is given, the exact number is not on record here.

The test system of the data set is Saccharomyces cerevisiae PS128 hsf1 delta, HSF1(1-493) fusion. Nature of the data set: growth estimate (transactivation domain function in HSF1 fusion, heat-shock survival) (a.u. (slope of normalised read count over time)); higher = stronger growth at 37°C, i.e. more transactivation activity. Conditions: library: random library.
RGSWLPPK: the growth estimate is less than -0.25. In the case of HTGLGVHLLTM it was less than -0.25; in that of YEDNCYGHSRDILASSPERT, less than -0.25; in that of LRACCHEALNEAPIGKFPPL, less than -0.25.

Turning to KGRLSKCAVLTCT, the growth estimate was less than -0.25. In the case of SWDRLSRRP it was less than -0.25; in that of RLAPLNERYPWNTPAYLREK, less than -0.25. In the case of SEFEETDM it was less than -0.25; in that of REVRPALASYG, less than -0.25.

Regarding LHFASRKWAFKYWGFDEANN, the growth estimate was less than -0.25. The figure for HQS is less than -0.25. The figure for VYAHHFDSNIWPGQKLLGAC is less than -0.25. In the case of CNPRLL, the growth estimate is less than -0.25. The figure for QNT is less than -0.25; for KRDKQYDAGRCQFCCCVQLV it is less than -0.25. In the case of TWSHWGTSSWAD it was less than -0.25; in that of LPGLGLSKMPRGGVWGNLRP, less than -0.25; in that of ADALDSSCPVDLGNICIWEP, -0.183. In the case of LVPSSFYRKPTIHEHHGPVQ it was -0.245; in that of WNGKTLIMGALRSTWEDVPI, less than -0.25; in that of KYKPDWEYYWAGRNQVAALQ, less than -0.25. As to KLRVKSQGDRAQ, the growth estimate is less than -0.25. The figure for TPISRKINSSMVFS is less than -0.25; for AITVPVPACCVLKR it is less than -0.25; for SLIKNEVAVIRRFVVK it is less than -0.25. The figure for RQF is less than -0.25; for VGLPCKRGVG it is less than -0.25; for VRVSVHEASYSDFRRNNVAG it is less than -0.25.

For the substance SVFGEAVYADMLATGC, the growth estimate is less than -0.25. As for GHSRDFWPPKFPSGW, the growth estimate is less than -0.25. In the case of RRATTQGASPHLGSVPYGCR it was less than -0.25; in that of VAIQLLS, less than -0.25; in that of ALDHSCSENTERHRGADLTL, less than -0.25. As to ALYKRSTSNGL, the growth estimate was less than -0.25.

As for YEQQCIHRLVAEMYLALLAR, the growth estimate is less than -0.25. In the case of HFE it was less than -0.25; in that of GGRSLPASFAGGSHSPLGRR, less than -0.25; in that of GLPRRMLPNCLLINEGSKGW, less than -0.25.

LTALDCFASVIPRAA: the growth estimate is less than -0.25. For the substance QVTIRRFGPGPMGQYMDR, the growth estimate was less than -0.25. In the case of GQWSPPGVTEVASAAGQYMA it was less than -0.25; in that of IAATSQ, less than -0.25; in that of MNTCSTGPPLVFSPAESVVK, less than -0.25. In the case of HYTATPQFRSLCD it was less than -0.25; in that of ADGTSECPPWAASLSPLNGI, less than -0.25; in that of RKVYGLFGM, less than -0.25. In the case of STSRNQKSNFYGDRV it was less than -0.25; in that of NTVRFFGACDLSMDFLITLT, less than -0.25; in that of QLSSEDSRR, less than -0.25. As to DSKSPDKDRNLLSSFRVLYW, the growth estimate is less than -0.25.

For the substance QFPRAEGDAARKDTRLVKSR, the growth estimate was less than -0.25. The figure for VTTWCPL is less than -0.25; for VWDPRNPMEMHRQAR it is less than -0.25.

For the substance MLLPNRVSWHLPVHRA, the growth estimate was less than -0.25. For the substance LGEQDKVPASWI, the growth estimate was less than -0.25.

On to RPESTANEGAWLSPLTASAA, for which the growth estimate was less than -0.25. The figure for VILGQSLPYHSRYSAVGHST is less than -0.25; for FATGTPSVHCVRMITPQLSQ it is less than -0.25. With ACGRVSLRLIQDMVLGTGQ, the growth estimate was less than -0.25.

For the substance NFEGMSLVVGGAAPLQ, the growth estimate is less than -0.25.

For the substance ASKRISYKLGYRCTGLIIYA, the growth estimate was less than -0.25. The figure for VFRARILSMLRKVRTLRDTP is less than -0.25; for LPVCLGKRGRPWSIAS it is less than -0.25; for PIALNPSTPTRVEGVQLQSG it is less than -0.25. The figure for QLLDST is less than -0.25; for YSVFVIIGSQSRWHNLSNCS it is less than -0.25; for YRKEHLEANRTSDICVLLVM it is less than -0.25. In the case of SLISTSACSYDR, the growth estimate is less than -0.25.

Regarding WYAWVSNKAVQRVFSDCPCT, the growth estimate is less than -0.25. The figure for ILGWAR is less than -0.25; for EFEGLGGGGTGSVVLVWAAS it is less than -0.25; for HRIAFPRTTHLYSSHRPMSP it is -0.243. With LLVTSGPSYAWSAL, the growth estimate is less than -0.25.

Turning to RNQ, the growth estimate is less than -0.25.

On to LGHVL, for which the growth estimate was less than -0.25. As for IAHPLATTRGSST, the growth estimate is less than -0.25. The figure for LQDHCWNCLT is -0.229; for KCRFPGSVI it is less than -0.25. The figure for TGSAPSEAGWGLTWFLKSSW is less than -0.25; for GAIGGR it is less than -0.25. In the case of PLTCCLVGMYCTFPEFYSAP it was less than -0.25.

As for LLRAF, the growth estimate was less than -0.25. The figure for LHKDWVRISQGWSGVDKLRG is less than -0.25; for HVRLEGFVKGLDYRGSQQSV it is less than -0.25; for RSHSRVRISPWVA it is less than -0.25. In the case of LLDLFSWAAGIHLKSR it was less than -0.25.

Turning to RGVETGCVREG, the growth estimate was less than -0.25.

With SPCECVDRCDDSVVAQYDP, the growth estimate was less than -0.25. The figure for RRISVVEIGGGRGVEYTREH is less than -0.25; for LLLAIG it is less than -0.25; for TYRVQQAAGEEVRHSRDKG it is less than -0.25. The figure for PELGSEAFVRLLATNREFSG is less than -0.25.

As for VHDCGVDPCGSRGA, the growth estimate is less than -0.25.

Take GLVAGCAWHFSVPHHSVVFG: the growth estimate was less than -0.25. In the case of TVGWRGTGVMALAHYKHAVA it was less than -0.25; in that of MGKAQILVKSVSMCN, less than -0.25; in that of WNVTRAS, less than -0.25.

For QATAVEYYGLRAAHSRLGAR, the growth estimate is less than -0.25. The figure for TKNVHCRV is less than -0.25; for RVPKGHDSLPVRRASVLN it is less than -0.25.

Turning to FIGL, the growth estimate was less than -0.25. The figure for AVL is less than -0.25.

For the substance REVV, the growth estimate was less than -0.25. The figure for MHHDVFETPRIHEFGVVTPT is less than -0.25; for NSTGYFVSPPHSSAPCLFAL it is less than -0.25.

With PGWVVQRGFMDRLLAMPGRD, the growth estimate was less than -0.25. Consider AWNMRKQGGIFQCSLLW, for which the growth estimate was less than -0.25.

In the case of VRGCRVSWILSRLCMMA, the growth estimate is less than -0.25. The figure for ARQVVSFKSNGVAGRRPGGN is less than -0.25; for DNNFLWASDTVSWLEEPLAN it is -0.125. With GLSRLSSEIAMPIVTAKRGS, the growth estimate is less than -0.25. In the case of NPSIEHFFETSFGFLSGVYG it was less than -0.25; in that of RGFWACVFMCHASDTLRGST, less than -0.25; in that of ARAGDTSET, less than -0.25.
